Data from PubChem BioAssay AID1347076 (National Center for Advancing Translational Sciences (NCATS), 2019).
About 13,000 (3.2%) of roughly 400,000 compounds were called active. The inconclusive results got no clear call from the source; some entries with a clear call stand among them for comparison. Calls follow the shape of the dose curve; as a rule, active = well fitted cell-killing curve with a large enough effect; inconclusive = small, poorly fitted or top-dose-only effect, or effect the other way; inactive = flat fitted curve, though single readings scatter. A potency beside an inconclusive call is a rough fit, not a confirmed value.

Assay: qHTS assay for MDR1-selective chemotherapeutics: Primary screen using the drug-selected MDR subline cells KB-V1; also: nearly all actives have a fitted effect of over 60% in size
Conditions: KB-V1 MDR cells viability, CellTiter-Glo, 72 h; series mostly up to 46.1 µM
Outline: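 Compound-treated KB-V1 multidrug-resistant cells, 72 h, 37 degrees C; viability by CellTiter-Glo. Fitted qHTS curves give the values.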
Potency is read from the fitted curve at half-maximal effect.

Structure (SMILES) | Potency
C/C(=N/O)c1ccccn1 | inactive
O=C(COC(=O)c1ccc(F)c(S(=O)(=O)N2CCOCC2)c1)NCCc1ccccc1 | inactive
COc1ccc(N2CCN(C(=O)Nc3cccc(C(F)(F)F)c3)CC2)cc1 | inconclusive: 20.6 µM [cytotoxic, partial curve, poor fit]
Cc1ccc(N=N/C(=C\O)C(=O)c2ccc(Cl)cc2)cc1 | inconclusive: 23.1 µM [cytotoxic, single point]
COc1ccc(NS(=O)(=O)c2cc(NC(=O)c3cncc(Br)c3)ccc2OC)cc1 | inconclusive: 16.4 µM [cytotoxic, partial curve, poor fit]
O=C(Nc1nc(-c2ccc(F)cc2)cs1)C1CCN(C(=O)c2ccc(F)cc2)CC1 | inconclusive: 1.84 µM [cytotoxic, full curve]
CCOC(=O)C1CCN(C(=O)c2cc3c(OC)c(OC)c(OC)cc3[nH]2)CC1 | inconclusive: 3.26 µM [cytotoxic, full curve]
Cc1ccc(-c2nnc(Nc3ccc(C(=O)N(C)C)cc3)c3ccccc23)cc1S(=O)(=O)NC(C)(C)CO | inactive
CCN(CC)c1ccc(C2C(C(N)=O)=C(C)Nc3ncnn32)cc1 (stereo not given) | inconclusive: 29.1 µM [rising, single point]
CC1CCN(C(=O)CC(NC(=O)c2ccccc2Cl)c2ccccc2)CC1 (stereo not given) | inconclusive: 10.3 µM [cytotoxic, partial curve, poor fit]
CCN1C(Nc2ccccc2)=NC[C@@H]1Cc1ccccc1 | inconclusive: 10.3 µM [rising, partial curve, poor fit]
COc1cc(OC)c(C=NNC(=S)NC23CC4CC(CC(C4)C2)C3)c(OC)c1 | active: 5.17 µM
CCc1cc2c(CN3CCN(CCO)CC3)cc(=O)oc2cc1O | inconclusive: 0.731 µM [rising, full curve, poor fit]
CC(C)C(NC(=O)Cc1ccccc1[N+](=O)[O-])C(C)C | inconclusive: 23.1 µM [cytotoxic, partial curve, poor fit]
COC(=O)c1c(C)nc(C)c(C(=O)OC)c1-c1ccc(OC)cc1 | inconclusive: 16.4 µM [cytotoxic, partial curve, poor fit]
COc1ccc(C(=O)NNC2=NC(C)(C)Cc3ccccc32)cc1 | inconclusive: 8.2 µM [cytotoxic, partial curve]
O=C(Oc1ccccc1)c1ccccc1OS(=O)(=O)c1ccccc1 | inconclusive: 20.6 µM [cytotoxic, single point]
CCOC(=O)C1CCCN(C(=O)CCCn2nnnc2CN2CCOCC2)C1 (stereo not given) | inactive
COc1ccccc1Cc1c(-c2ccc(Cl)cc2)nc2c(Cl)cc(C(F)(F)F)cn12 | inactive
CCOC(=O)C1CCCN(C(=O)c2ccc(F)c(Cl)c2)CC1 (stereo not given) | inactive
CCc1cc2c(N=Nc3c(O)[nH]c4ccccc34)ncnc2s1 | active: 6.51 µM
N#CCC(=O)NCCCc1ccccc1 | inactive
CC1(C)COCN1S(=O)(=O)c1ccc(C(=O)Nc2nnc(-c3ccc(Cl)s3)o2)cc1 | inactive

Structure (SMILES) | Potency
Cn1c(=O)cc(SCC(=O)NCc2ccc(F)cc2)c2ccccc21 | inactive
CC1CN(C(=O)c2ccc(-c3ccccc3Cl)o2)CC(C)O1 (stereo not given) | inconclusive: 13 µM [cytotoxic, partial curve]
COc1cccc(CN(C)CC(=O)Nc2sc3c(c2C#N)CCC3)c1OC | inactive
Cc1ccc(NS(=O)(=O)c2ccc(C)c(NC(=S)NCCN3CCOCC3)c2)c(C)c1 | inactive
O=C1NC[C@H](CCCCN2C[C@@H](Cc3ccccc3)N(CC3CCCCC3)C(=O)C2=O)N(CCC2CCCCC2)C1=O | inactive
O=C(c1ccc(S(=O)(=O)NCc2ccco2)cc1)N1CCCC(C(F)(F)F)C1 (stereo not given) | inconclusive: 18.4 µM [cytotoxic, partial curve]
COc1cccc(OCc2nc3ccccc3n2CCOc2cccc(C)c2)c1 | inconclusive: 8.2 µM [cytotoxic, partial curve]
COc1ccc(CCNC(=O)c2ccc([N+](=O)[O-])cc2Cl)cc1OC | inactive
CN1CC=C2C(C#N)=C(N)C(C#N)(C#N)[C@H](c3ccoc3)[C@H]2C1 | inactive
COc1ccccc1N1CCN(C(CNC(=O)C(=O)NCCc2ccccc2)c2cccnc2)CC1 (stereo not given) | inconclusive: 1.84 µM [cytotoxic, full curve, poor fit]
CC(C)CCCCCCCCCCCCC(=O)NCC(=O)NC1C(O)C(O)C(Nc2ncnc3nc[nH]c23)OC1C(O)CO (stereo not given) | active: 0.164 µM
C[C@@H](c1ccccc1)N1C[C@H](COCc2ccccc2)Oc2cc(N3CC[C@@H](N(C)C)C3)ccc2S1(=O)=O | inconclusive: 29.1 µM [cytotoxic, single point]
Cc1ccc(S(=O)(=O)N(C)C)cc1NC(=O)C(C)OC(=O)C1CCC1 (stereo not given) | inconclusive: 20.6 µM [rising, partial curve, poor fit]
COc1ccc(CCNC(=O)COC(=O)c2cc3ccccc3oc2=O)cc1OC | inconclusive: 29.1 µM [rising, single point]
Fc1ccc(CNc2nc(-c3ccccc3)cc(C(F)(F)F)n2)cc1 | inactive
COc1cccc(C(=O)N2CCCc3ccccc32)c1 | inconclusive: 18.4 µM [cytotoxic, partial curve, poor fit]
CC(C)Oc1ccc(C(=O)Nc2ccc(Cl)c(S(=O)(=O)Nc3ccc(Cl)cc3)c2)cc1 | active: 5.8 µM
CC(=O)c1ccc(S(=O)(=O)N(C)CCCC(=O)N2CCN(c3ncccn3)CC2)cc1 | inconclusive: 16.4 µM [cytotoxic, single point]
O=C(Nc1nc2c(s1)CCCC2)c1ccc(Br)s1 | active: 5.17 µM
Cc1cc(C)n(-c2nc3ccccc3n3cnnc23)n1 | inactive
O=C(OCCOc1ccccc1F)c1cccc(S(=O)(=O)N2CCOCC2)c1 | inconclusive: 29.1 µM [cytotoxic, single point]
O=C(COc1cccc(C(F)(F)F)c1)N1CCN(c2ccc(O)cc2)CC1 | inconclusive: 29.1 µM [cytotoxic, single point]

Grouped by structure, the entries above containing a cyano group
Structure (SMILES) | Potency
N#CCC(=O)NCCCc1ccccc1 | inactive
COc1cccc(CN(C)CC(=O)Nc2sc3c(c2C#N)CCC3)c1OC | inactive
CN1CC=C2C(C#N)=C(N)C(C#N)(C#N)[C@H](c3ccoc3)[C@H]2C1 | inactive

Reprinted at random: two records from the list.
Structure (SMILES) | Potency
O=C(OCCOc1ccccc1F)c1cccc(S(=O)(=O)N2CCOCC2)c1 | inconclusive: 29.1 µM [cytotoxic, single point]
Cc1cc(C)n(-c2nc3ccccc3n3cnnc23)n1 | inactive
